Measured values published in paper PMC2944883.
No constants are given. Whether binding was seen depends on the method and setting. Binding seen in cells or lysates may run through a third protein. Some entries that bind do so weakly or less than the wild type.

Sequences of proteins named here, by UniProt entry; tags and fusion partners are left off. A change or cut given only in a name is not applied to a line headed by its entry.
UniProt Q969F8: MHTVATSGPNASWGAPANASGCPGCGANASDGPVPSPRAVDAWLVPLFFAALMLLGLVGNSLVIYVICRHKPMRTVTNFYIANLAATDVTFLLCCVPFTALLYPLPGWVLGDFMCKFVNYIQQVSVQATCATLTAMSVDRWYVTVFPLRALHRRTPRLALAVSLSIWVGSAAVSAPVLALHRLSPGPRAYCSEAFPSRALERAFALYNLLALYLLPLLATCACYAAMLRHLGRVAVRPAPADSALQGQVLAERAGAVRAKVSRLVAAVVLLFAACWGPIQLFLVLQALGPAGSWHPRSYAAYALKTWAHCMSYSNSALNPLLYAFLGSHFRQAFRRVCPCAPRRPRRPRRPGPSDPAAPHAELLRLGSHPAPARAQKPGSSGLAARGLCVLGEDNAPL
UniProt P29066: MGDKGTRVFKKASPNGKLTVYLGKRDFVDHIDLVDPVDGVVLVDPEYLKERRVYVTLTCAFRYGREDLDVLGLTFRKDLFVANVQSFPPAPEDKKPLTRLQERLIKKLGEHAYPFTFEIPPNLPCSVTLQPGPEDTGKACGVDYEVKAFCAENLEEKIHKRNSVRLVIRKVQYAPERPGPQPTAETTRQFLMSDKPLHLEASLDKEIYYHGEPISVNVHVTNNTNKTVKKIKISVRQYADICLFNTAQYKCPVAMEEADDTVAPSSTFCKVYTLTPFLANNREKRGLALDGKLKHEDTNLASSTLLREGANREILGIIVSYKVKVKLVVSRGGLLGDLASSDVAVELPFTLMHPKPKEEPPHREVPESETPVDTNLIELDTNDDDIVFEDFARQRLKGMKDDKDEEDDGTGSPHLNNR
UniProt P29067: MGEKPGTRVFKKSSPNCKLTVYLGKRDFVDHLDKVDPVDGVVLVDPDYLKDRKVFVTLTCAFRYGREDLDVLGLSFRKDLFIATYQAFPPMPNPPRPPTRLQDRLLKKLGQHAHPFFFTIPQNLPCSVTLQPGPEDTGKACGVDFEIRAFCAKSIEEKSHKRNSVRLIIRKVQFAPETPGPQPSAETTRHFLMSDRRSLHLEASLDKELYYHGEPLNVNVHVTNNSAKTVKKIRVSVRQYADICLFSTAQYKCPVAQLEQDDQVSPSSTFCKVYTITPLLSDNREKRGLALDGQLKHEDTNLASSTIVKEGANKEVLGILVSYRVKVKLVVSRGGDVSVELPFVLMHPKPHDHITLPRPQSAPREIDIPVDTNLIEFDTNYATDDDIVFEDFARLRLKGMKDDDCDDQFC

Biological target: FLAG-L148S (GPR54 L148S mutant) (human) (UniProt Q969F8)
Assay: co-IP; HEK 293 cells co-transfected with FLAG-L148S and β-arrestin-1-GFP or β-arrestin-2-GFP; untreated or stimulated with 100 nM Kp-10 for 5 min; FLAG-L148S immunoprecipitated from 750 µg of total protein with FLAG-agarose beads; immunoblot with anti-GFP

Row | Substance | binding
1 | β-arrestin-1-GFP (from UniProt P29066 1-418) | binds
2 | β-arrestin-2-GFP (from UniProt P29067 1-410) | binds
